# Results are given in words; binding and its absence hold for the method and conditions named. In cells and extracts the contact can be indirect. Some entries that bind do so weakly or less than the wild type.
# By UniProt entry, the sequences of proteins in these tests, tags left out. Where a name states a change or a piece, a line headed by the entry shows the natural chain unless it says otherwise.
# UniProt P36897: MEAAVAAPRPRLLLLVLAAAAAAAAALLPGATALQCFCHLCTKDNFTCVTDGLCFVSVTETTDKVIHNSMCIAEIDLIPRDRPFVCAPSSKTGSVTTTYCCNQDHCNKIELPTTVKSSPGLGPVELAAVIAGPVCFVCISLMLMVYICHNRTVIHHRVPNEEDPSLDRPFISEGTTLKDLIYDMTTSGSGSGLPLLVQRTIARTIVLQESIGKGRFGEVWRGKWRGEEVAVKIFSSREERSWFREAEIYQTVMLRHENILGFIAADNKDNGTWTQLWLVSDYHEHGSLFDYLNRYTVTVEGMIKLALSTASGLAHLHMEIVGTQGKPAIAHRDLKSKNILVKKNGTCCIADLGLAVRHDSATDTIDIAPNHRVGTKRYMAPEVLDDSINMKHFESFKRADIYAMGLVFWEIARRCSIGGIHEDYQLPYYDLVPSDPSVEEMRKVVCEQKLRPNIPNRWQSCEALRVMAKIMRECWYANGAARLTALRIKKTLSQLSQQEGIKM
# UniProt O00238: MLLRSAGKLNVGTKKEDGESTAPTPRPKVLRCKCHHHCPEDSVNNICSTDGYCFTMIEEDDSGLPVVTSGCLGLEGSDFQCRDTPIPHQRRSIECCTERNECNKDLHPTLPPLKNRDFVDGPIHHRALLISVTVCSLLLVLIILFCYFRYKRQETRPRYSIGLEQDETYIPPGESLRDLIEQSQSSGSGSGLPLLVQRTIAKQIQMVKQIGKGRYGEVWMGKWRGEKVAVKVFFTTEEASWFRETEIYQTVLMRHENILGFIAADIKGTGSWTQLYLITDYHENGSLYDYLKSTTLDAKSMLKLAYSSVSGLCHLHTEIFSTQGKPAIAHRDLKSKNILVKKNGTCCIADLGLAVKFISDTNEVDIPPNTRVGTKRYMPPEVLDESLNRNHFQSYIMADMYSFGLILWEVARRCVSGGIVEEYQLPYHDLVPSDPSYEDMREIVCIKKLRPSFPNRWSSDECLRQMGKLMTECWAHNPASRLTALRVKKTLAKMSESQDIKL
# UniProt Q13873: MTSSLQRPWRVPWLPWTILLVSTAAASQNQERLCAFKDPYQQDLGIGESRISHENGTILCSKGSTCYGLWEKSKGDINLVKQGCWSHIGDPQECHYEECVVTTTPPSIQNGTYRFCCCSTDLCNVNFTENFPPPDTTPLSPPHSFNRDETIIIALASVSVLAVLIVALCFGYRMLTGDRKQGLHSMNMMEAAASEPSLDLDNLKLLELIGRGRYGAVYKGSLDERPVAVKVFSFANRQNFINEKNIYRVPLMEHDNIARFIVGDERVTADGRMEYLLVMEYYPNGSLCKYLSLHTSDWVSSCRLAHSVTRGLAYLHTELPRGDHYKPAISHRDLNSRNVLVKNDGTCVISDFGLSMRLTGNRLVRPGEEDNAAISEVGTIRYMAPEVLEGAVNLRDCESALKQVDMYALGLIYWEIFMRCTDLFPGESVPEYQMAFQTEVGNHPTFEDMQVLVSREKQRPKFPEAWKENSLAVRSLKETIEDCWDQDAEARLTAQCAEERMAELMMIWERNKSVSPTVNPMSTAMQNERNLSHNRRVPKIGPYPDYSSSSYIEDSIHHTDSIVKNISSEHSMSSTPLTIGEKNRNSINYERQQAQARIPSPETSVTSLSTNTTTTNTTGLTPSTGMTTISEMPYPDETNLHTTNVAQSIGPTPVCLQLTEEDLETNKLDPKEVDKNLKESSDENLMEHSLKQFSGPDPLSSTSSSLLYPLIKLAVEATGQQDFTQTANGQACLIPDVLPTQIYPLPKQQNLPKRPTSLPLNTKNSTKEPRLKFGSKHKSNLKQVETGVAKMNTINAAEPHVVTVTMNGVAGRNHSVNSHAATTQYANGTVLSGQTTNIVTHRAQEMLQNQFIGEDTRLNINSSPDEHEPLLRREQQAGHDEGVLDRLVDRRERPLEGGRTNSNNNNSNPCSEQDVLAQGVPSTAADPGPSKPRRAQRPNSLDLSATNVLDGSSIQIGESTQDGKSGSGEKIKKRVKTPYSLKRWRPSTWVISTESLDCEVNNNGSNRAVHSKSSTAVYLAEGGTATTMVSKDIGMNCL
# UniProt Q15796: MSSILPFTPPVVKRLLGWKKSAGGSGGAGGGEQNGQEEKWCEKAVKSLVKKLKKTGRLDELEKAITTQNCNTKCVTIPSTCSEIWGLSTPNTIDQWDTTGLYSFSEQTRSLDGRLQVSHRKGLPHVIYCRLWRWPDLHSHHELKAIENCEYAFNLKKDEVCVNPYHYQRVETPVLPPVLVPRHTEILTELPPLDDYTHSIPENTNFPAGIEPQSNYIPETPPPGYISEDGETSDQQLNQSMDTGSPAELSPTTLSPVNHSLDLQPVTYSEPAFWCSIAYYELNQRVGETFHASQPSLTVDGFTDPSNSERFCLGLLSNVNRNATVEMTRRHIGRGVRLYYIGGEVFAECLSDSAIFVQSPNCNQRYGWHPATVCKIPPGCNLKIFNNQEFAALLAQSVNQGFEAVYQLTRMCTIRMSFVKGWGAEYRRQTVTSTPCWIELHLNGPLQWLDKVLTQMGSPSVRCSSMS
# UniProt Q15797: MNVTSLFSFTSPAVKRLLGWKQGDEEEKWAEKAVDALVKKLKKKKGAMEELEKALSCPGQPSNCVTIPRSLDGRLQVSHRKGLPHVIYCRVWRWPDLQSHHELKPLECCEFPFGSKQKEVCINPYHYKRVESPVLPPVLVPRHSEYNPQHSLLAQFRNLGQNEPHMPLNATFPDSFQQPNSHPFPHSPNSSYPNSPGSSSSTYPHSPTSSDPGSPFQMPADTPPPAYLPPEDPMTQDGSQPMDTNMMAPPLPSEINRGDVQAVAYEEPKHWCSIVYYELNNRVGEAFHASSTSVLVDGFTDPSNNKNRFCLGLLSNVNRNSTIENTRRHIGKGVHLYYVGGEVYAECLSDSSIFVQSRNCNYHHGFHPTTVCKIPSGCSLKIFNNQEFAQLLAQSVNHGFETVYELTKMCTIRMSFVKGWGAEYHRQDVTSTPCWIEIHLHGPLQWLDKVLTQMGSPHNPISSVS
# How the values were obtained:
# [1] = target: TGF-β receptor complex (wild type TβR-I and TβR-II) (UniProt P36897); assay: co-IP of labeled receptors
# [2] = target: TβR-I(LB), TβR-I with the BMPR-I L45 loop, with TβR-II (UniProt P36897); assay: co-precipitation of 125I-TGF-β1-labeled receptors with Flag-Smad1(1-454) (FIG. 20A)
# [3] = target: BMP receptor complex (wild type BMPR-IB and BMPR-II) (human) (UniProt O00238+Q13873); assay: co-precipitation of labeled wild type BMP receptors with Flag-Smad1(1-454) (FIG. 20A)
# [4] = target: TGF-β receptor complex (wild type TβR-I and TβR-II) (UniProt P36897); assay: co-IP of labeled receptors (FIG. 12A)
# [5] = target: T1, Fast1 (DNA-binding factor, forkhead family) (UniProt P70056); assay: co-IP of myc-Fast1 with Flag-Smad
# T1 sequence (looked up): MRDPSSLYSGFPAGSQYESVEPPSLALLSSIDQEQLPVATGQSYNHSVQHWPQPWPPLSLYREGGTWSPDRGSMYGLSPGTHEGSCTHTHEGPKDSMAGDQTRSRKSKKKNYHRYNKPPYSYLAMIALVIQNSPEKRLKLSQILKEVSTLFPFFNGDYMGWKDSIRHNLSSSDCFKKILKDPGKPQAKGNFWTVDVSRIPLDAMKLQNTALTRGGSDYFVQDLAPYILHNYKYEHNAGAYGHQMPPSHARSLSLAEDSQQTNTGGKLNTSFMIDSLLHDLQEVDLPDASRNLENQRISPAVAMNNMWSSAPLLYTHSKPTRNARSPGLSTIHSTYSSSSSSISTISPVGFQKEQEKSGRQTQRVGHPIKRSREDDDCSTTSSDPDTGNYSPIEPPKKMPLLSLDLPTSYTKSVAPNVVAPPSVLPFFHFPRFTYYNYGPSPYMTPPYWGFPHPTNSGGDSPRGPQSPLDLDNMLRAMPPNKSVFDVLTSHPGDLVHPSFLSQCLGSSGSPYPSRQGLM
# [6] = target: TGF-β receptor complex (wild type TβR-I and TβR-II) (UniProt P36897); assay: co-IP of labeled receptors (FIG. 14B)
# [7] = target: TGF-β receptor complex (wild type TβR-I and TβR-II) (UniProt P36897); assay: co-IP of 125I-TGF-β1 cross-linked receptors with Flag-Smad2
substance,measurement,setting,value
Smad2 Q407E (from UniProt Q15796 272-467),binding,[1],binds
Smad2 W368F (from UniProt Q15796 272-467),binding,[1],binds
"Smad1(1-454), Smad1 lacking the last 11 amino acids (from UniProt Q15797 1-454)",binding,[2],binds
same,binding,[3],binds
Smad2(D450E) (from UniProt Q15796 272-467),binding,[4],binds
Smad2 A404T (from UniProt Q15796 272-467),binding,[1],binds
Smad2 A392Q (from UniProt Q15796 272-467),binding,[1],binds
Smad2 P360R (from UniProt Q15796 272-467),binding,[1],binds
"Smad2, full-length, wild type (from UniProt Q15796 272-467)",binding,[5],binds
same,binding,[6],binds
same,binding,[7],binds
